Measured values taken from paper PMC3769348, “Secreted and Transmembrane 1A Is a Novel Co-Stimulatory Ligand” (PLoS ONE, 2013).
No constants are given. Whether binding was seen depends on the method and setting. Some entries that bind do so weakly or less than the wild type. Sequences can lack the tags named with a protein.

Columns and labels:
[1] = biological target: T1, GITR (TNFRSF18), endogenous in activated CD7-/- mouse T cells (mouse (endogenous in C57BL/6 CD7-/- splenocytes and CD4+ T cells)) (UniProt O35714); assay: flow cytometry on cells; APC-conjugated SECTM1A-Fc on anti-CD3 and anti-CD28 activated CD7-/- CD4+ T cells pre-incubated for 1 hour with GITRL-Fc or hIL7R-Fc (negative control), or with rat anti-GITR (YGITR-765) or rat IgG2b isotype control; only the binder purified
T1 sequence: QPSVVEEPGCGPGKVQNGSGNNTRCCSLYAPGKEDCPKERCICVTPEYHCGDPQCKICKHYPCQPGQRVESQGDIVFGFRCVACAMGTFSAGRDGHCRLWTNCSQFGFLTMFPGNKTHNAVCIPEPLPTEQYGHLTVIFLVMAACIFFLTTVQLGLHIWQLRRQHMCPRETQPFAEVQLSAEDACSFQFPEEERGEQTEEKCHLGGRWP

[2] = biological target: SECTM1B-Fc fusion protein (extracellular domain of murine SECTM1B fused to aglycosyl human IgG1 Fc) (mouse) (UniProt Q9JL59); assay: SPR; BIAcore 3000, 25°C, CM5 chip; Fc fusion proteins held on separate flow cells by mouse anti-human IgG (SBH2) on amine-coupled rabbit anti-mouse antibody; Fc fusion proteins at 25 µM injected in HEPES-buffered saline pH 7.4 at 5 µl per minute; both purified

B1: GITRL-Fc fusion protein (Fc fusion, UniProt Q7TS55 42-173)
chain: TSLKPTAIESCMVKFELSSSKWHMTSPKPHCVNTTSDGKLKILQSGTYLIYGQVIPVDKKYIKDNAPFVVQIYKKNDVLQTLMNDFQILPIGGVYELHAGDNIYLKFNSKDHIQKTNTYWGIILMPDLPFIS
binding [1]: binds

B2: SECTM1B-Fc fusion protein (extracellular domain of murine SECTM1B fused to aglycosyl human IgG1 Fc) (Fc fusion, UniProt Q9JL59 29-160)
chain: HNDVWDEPCCTEHEVSVNRGSRVVMACNISNNLRDVTIELVTSEKTSIIFNHTPPGNYSKDSWQLHIQGVQAQLVITDAQDKHSGNYSWKLHGFQAEFKNFNLTVNAADRQKTEDLPVTKVPDKPPTAVRTE
modifications: N-glycosylated
binding [2]: no binding (tested: 25 µM)
